The record followed here is publication PMC3221659, “Targeting of Mitochondria-Endoplasmic Reticulum by Fluorescent Macrocyclic Compounds” (PLoS ONE, 2011).

Some entries repeat one wording, which the source may state once for all of them.

This data set relates to MCF-7, NHDF and P14 cells. The experiment in a line: Fluorescence and confocal microscopy: uptake and sub-cellular localization. Particulars: co-staining with MitoTracker, ER-Tracker, Hochest 33342. Type of data set: cell-based, human. On the procedure: The timescale of trafficking of these compounds and their sub-cellular localization have been subsequently examined in MCF-7, NHDF and P14 cells using fluorescence microscopy. The cells are mounting on 0.1 mm thick glass cover slips by withdrawal of the respectively growth medium.
The incubation times to test the ability compounds to penetrate into cells varied from 5 min to 48 h, and concentrations onto the cells were 10 nM and 100 µM by dissolving in appropriate medium. […] By analyzing each image recorded, all the compounds in all cells rapidly crossed the cell membrane (5 min) and induced a slight stain in the first minutes of incubation, depending on the type of cells. However, for incubation times longer than 30 min, it seems that this difference in the stained disappeared, thus appearing that the compounds were localized into an organelle of the cytoplasm.
Besides, the subcellular localization of the compounds has been confirmed by co-staining with MitoTracker™ (25 nM, 45 min of incubation) and ER-Tracker™ (100 nM, 30 min of incubation) probes in MCF-7, NHDF and P14 cells, with compound concentrations of 10 nM and 100 nM and for incubation times of 1 h.
After growth in the glass bottom culture dishes coated with collagen (1×10^4 cells/dish), the cells were incubated in the dark at 37°C with 10 nM of all the compounds and analyzed from 5 min to 48 h.
Prior to visualization, the excess probe was washed off by rinsing in PBS four times. After mounting these samples, the compounds were localized using a Zeiss AX10 microscope and the Axio Vision Real 4.6 software.
In the co-localization experiment, cells were incubated in the dark at 37°C with 100 nM of all the compounds for 1 h. […] Prior to visualization, excess probe was washed off by rinsing in PBS four times.
An appropriate emission band was selected for the two fluorescent channels. A 63× ApoChromat,1.4-NA objective (Carl Zeiss) was used to ensure high-resolution images. DIC images were collected simultaneously with transmitted light by excitation at 633 nm. Sequential rather than simultaneous acquisition was used to avoid bleed-through between the two fluorescent channels. Images were processed with LSM Image Browser (Zeiss), ImageJ and Adobe Photoshop.
Consider `CN1CCCNCc2cccc(n2)CNCCCN(C)CCCNCc2cccc(n2)CNCCC1` [Me2[28]py2N6], for which the sub-cellular localization entry is “localize in mitochondria and ER”.

With `c1cc2ccc3ccc4nc3c2nc1CNCCCCCCNC4` [[16]phenN2], the sub-cellular localization entry was “localize in mitochondria and ER”.

Take `c1cc2ccc3ccc4nc3c2nc1CNCCNCCNCc1ccc2ccc3ccc(nc3c2n1)CNCCNCCNC4` [[30]phen2N6]: the sub-cellular localization entry is “localize in mitochondria and ER”.

Turning to `c1cc2ccc3ccc4nc3c2nc1CN1CCCCCCN(C4)Cc2ccc3ccc4ccc(nc4c3n2)CN2CCCCCCN(Cc3ccc4ccc5ccc(nc5c4n3)C2)Cc2ccc3ccc4ccc(nc4c3n2)C1` [cryptphen], the sub-cellular localization entry is “localize in mitochondria and ER”.
